B1: tRNA (parent)
chain: GUUCCGUUGGCGUAAUGGUAACGCGUCUCCCUCCUAAGGAGAAGACUGCGGGUUCGAGUCCCGUACGGAACG

This sample is rich in variants without activity. Bounds are passed on as bounds.

The variants in this series derive from B1. Put plainly: yeast fitness relative to wild type (ratio to wild type); higher = fitter; tRNA-Arg(CCU), competitive growth, 37 C, YPD. The procedure, abridged:
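Variants of the tRNA-Arg(CCU) gene, chemically synthesised with a 3% per-site mutation rate at 69 sites, were placed at the native genomic locus in Saccharomyces cerevisiae. The pooled strains were competed in YPD at 37°C for 24 hours in six parallel replicates. Gene amplicons from the start population and from each end population were read by 100-nucleotide paired-end sequencing. Darwinian fitness relative to wild type came from changes in genotype frequencies; genotypes needed ≥ 100 starting reads, and estimates < 0.5 were set to 0.5.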
As to G9A A40C G67U, the yeast fitness was not above 0.5.

In the case of C11A C34G A45C G52C, the yeast fitness is not above 0.5.

With G9C C30G A69C, the yeast fitness was not above 0.5.

Turning to U16C C24U C34A A70C, the yeast fitness was not above 0.5.

As for G9A C22U C30A C49A U54C C55A C62U C66U, the yeast fitness was not above 0.5.

For the variant C5G U64G C66U, the yeast fitness was determined as 0.593.

As to A45C C49G G58C, the yeast fitness is not above 0.5.

In the case of C22U C27U C33G G44C A65U, the yeast fitness was found to be 0.574.

For A20U C31A A37C, the yeast fitness was not above 0.5.

For G6C A20U A21G A37U, the yeast fitness was not above 0.5.

As for G12C C31U C62G, the yeast fitness was found to be 0.557.

As for U7A C22G C30U U32C A37G A70G, the yeast fitness was not above 0.5.

Take C30U A36G C61G: the yeast fitness is not above 0.5.

With G23A C46A C49A, the yeast fitness was not above 0.5.

A14C U19G C31G C33U A42G G48A G52A: the yeast fitness was not above 0.5.

As for G9A A14C C22G U54C, the yeast fitness was not above 0.5.

As to C11A U16C G18C A36G A45C A57C G68C, the yeast fitness is not above 0.5.

For U2A U8A G10A, the yeast fitness is not above 0.5.

Consider G12A A42G C61G C62U, for which the yeast fitness was not above 0.5.

Regarding U7G A15C G39C C49G, the yeast fitness was not above 0.5.

As for C34A A42G C46U U54C, the yeast fitness is not above 0.5.

For G18C G39C C61U, the yeast fitness is not above 0.5.

As for U7C C11G G39C G50C, the yeast fitness is not above 0.5.

In the case of U8G U16C A21U C22A U28G A65C, the yeast fitness was not above 0.5.

Regarding C5U U35G G52C G63A, the yeast fitness is not above 0.5.

In the case of U8C C24A, the yeast fitness turned out to be 0.616.

For the variant U7C C27G A65U A70G, the yeast fitness is not above 0.5.

For G23C C27G U53G, the yeast fitness was not above 0.5.

Consider A14C A36G A69C, for which the yeast fitness was not above 0.5.

On to U35A A37U C66U, for which the yeast fitness is not above 0.5.

As to C27U U32C C46G, the yeast fitness was determined as 0.765.

For A14G A57C C62U, the yeast fitness was not above 0.5.

On to U32A G41C A65U, for which the yeast fitness is not above 0.5.

As to C11A C24G C34U U53A G68C, the yeast fitness was not above 0.5.

As for A21U G25A U54A, the yeast fitness is not above 0.5.

Consider G6A A15C A20U C27U, for which the yeast fitness was not above 0.5.

Consider U3C A21C C22U C31U C33U, for which the yeast fitness was not above 0.5.

As for C11G C27U A36U A37U G41C A43C, the yeast fitness was not above 0.5.

Take C24A C27A U28A C55G: the yeast fitness was not above 0.5.

With C4A C5G C22U, the yeast fitness is not above 0.5.

For U26C C29U C60A, the yeast fitness is not above 0.5.

As to A20U A40U U59A, the yeast fitness is not above 0.5.

For the variant U26C U35C A37U U54G G63C, the yeast fitness was not above 0.5.

Take G9C G18A C22G C29U U32G: the yeast fitness was not above 0.5.

Take A43G U59A C66G: the yeast fitness was not above 0.5.

G6A G50A C60A G68U: the yeast fitness is not above 0.5.

On to U2A G6C A21G U32C U59G C66U A70C, for which the yeast fitness is not above 0.5.

In the case of C29U U47G C49G, the yeast fitness was not above 0.5.

For U2G C4A C22U U28G A42U C61U, the yeast fitness was not above 0.5.

Consider C46G C62G C66G, for which the yeast fitness is not above 0.5.

U28A A37C G41C: the yeast fitness is not above 0.5.

Take C31U A37U G50A A70U: the yeast fitness is not above 0.5.

Turning to A45G G67A, the yeast fitness came to 0.961.

In the case of U3G A14C A42U G44C C66U, the yeast fitness was not above 0.5.

On to U2G U59G A70C, for which the yeast fitness was not above 0.5.

In the case of A42U A43C, the yeast fitness worked out at 0.994.

As to A21C C49U G67C, the yeast fitness was not above 0.5.

For the variant U7A A20G C29U A57C, the yeast fitness is not above 0.5.

Regarding U13C G25A U26G G67U, the yeast fitness was not above 0.5.

Turning to G6C U7C A14U A15C U26C G48A G63A A69C, the yeast fitness is not above 0.5.

As to U2G A21C C33A, the yeast fitness was not above 0.5.

For C5A A15U U32G U35A G39A G44C C62U, the yeast fitness is not above 0.5.

Take A14G U26C G67C A69G: the yeast fitness is not above 0.5.

U7G C24U U54G A65C: the yeast fitness is not above 0.5.

For the variant A65U C66U A70G, the yeast fitness was not above 0.5.

Turning to C4A A15U A42C C46U C66G, the yeast fitness is not above 0.5.

A21U U35C G44A G48C C55G A69U: the yeast fitness is not above 0.5.

As to G25C C29G A43G C46U C49G, the yeast fitness was not above 0.5.

For the variant C4U C5A U13A C31U C34U A70C, the yeast fitness is not above 0.5.

With U28A A45C U53A, the yeast fitness is not above 0.5.

C5G U8C C46G: the yeast fitness was not above 0.5.

U16C C24U C34G C62U: the yeast fitness is not above 0.5.

U32A C34U G58A: the yeast fitness is not above 0.5.

In the case of A15U C62G A69U, the yeast fitness is not above 0.5.

Consider C31A G52C U64C, for which the yeast fitness is not above 0.5.

Take A57C G63A A70C: the yeast fitness is not above 0.5.

G10C C11U C24U C33G A69U: the yeast fitness is not above 0.5.

A37U G48C A57G G68C: the yeast fitness was not above 0.5.

As for U3C G9C C11U C30G A43C A69U, the yeast fitness was not above 0.5.

With C4A A45G A57U, the yeast fitness is not above 0.5.

In the case of A43U G48C C55U, the yeast fitness was not above 0.5.

Regarding C5A G23C G50C, the yeast fitness is not above 0.5.

With U2C C30G A69C, the yeast fitness was not above 0.5.

Consider G39C C49G A65G, for which the yeast fitness was not above 0.5.

For A14G A21G C24G U28G G63C, the yeast fitness is not above 0.5.

With U2A U13C A20G A21C C34U A36G A69C, the yeast fitness is not above 0.5.

Turning to A42G A43C, the yeast fitness came to 1.17.

Turning to C29U, the yeast fitness was 0.989.

For A21U C34G U53A G58A G63A, the yeast fitness was not above 0.5.

Take A21C G67C A70G: the yeast fitness is not above 0.5.

In the case of C29G G50A, the yeast fitness was 0.605.

G12C A40G G58C C61G A65C: the yeast fitness was not above 0.5.

Consider A14C C31G C61A, for which the yeast fitness is not above 0.5.

Regarding U64C A69C, the yeast fitness stood at 0.983.

Take A37C C62A: the yeast fitness came out at 0.874.

For U16A G18C U35A C55G A69C, the yeast fitness is not above 0.5.

On to C11U G23A U35C, for which the yeast fitness was 0.573.

As to C5U G17C C29U A57C, the yeast fitness is not above 0.5.

As for C4A C22G C29U C49A C55U, the yeast fitness is not above 0.5.

For the variant C24G C27A A65C, the yeast fitness is not above 0.5.

For the variant U3G A15G C24G G50A C55U G68A, the yeast fitness was not above 0.5.

Turning to C5U C31A U32C A37C G50C A69U, the yeast fitness was not above 0.5.

Take C4A U19A C27U: the yeast fitness was determined as 0.562.

As to C29A A57G A65C, the yeast fitness was not above 0.5.

With C4U C24A C30G C55U, the yeast fitness is not above 0.5.

With C4A C27A C31U A43G C61U A65C, the yeast fitness was not above 0.5.

Consider U7G C11G C34U A37U C46A G51A, for which the yeast fitness was not above 0.5.

For U3G C5U G10A C55U, the yeast fitness is not above 0.5.

In the case of A20G U53G C60A, the yeast fitness was not above 0.5.

C31U U35C A37C U47G G63A A70C: the yeast fitness was not above 0.5.

In the case of G10C C22U G44C A45U, the yeast fitness is not above 0.5.

In the case of U8A U19G C22U G58A, the yeast fitness was found to be 0.568.

As for C4G C5U U54A, the yeast fitness was not above 0.5.

In the case of U35G G44A U59C, the yeast fitness is not above 0.5.

Turning to U8C C29U G50C A70G, the yeast fitness was not above 0.5.

On to U8A G44C C61U, for which the yeast fitness is not above 0.5.

Regarding C4G G10A C30G A43G G56C, the yeast fitness is not above 0.5.

In the case of C11A G18A G58A, the yeast fitness was not above 0.5.

In the case of U7G A14G A65U, the yeast fitness is not above 0.5.

Consider G25A A40C G51C, for which the yeast fitness is not above 0.5.

Consider U7A G9C G17C G48A A69U, for which the yeast fitness was not above 0.5.

With G9A A37G C60G, the yeast fitness is not above 0.5.

On to C5U U35G U47A G48A, for which the yeast fitness is not above 0.5.

For the variant C5A C33U G52A, the yeast fitness is not above 0.5.

Turning to C5G A14C G23C G38A G58C, the yeast fitness is not above 0.5.

In the case of C11G C29U U35C C66A, the yeast fitness is not above 0.5.

Regarding A20G U32G A36U A57C, the yeast fitness was not above 0.5.

For G25C C29A U32A, the yeast fitness is not above 0.5.

Consider C4U G6A C34A, for which the yeast fitness is not above 0.5.

On to A36C U47A G48C G51C G68C, for which the yeast fitness is not above 0.5.

For the variant U2A C4A C31U G38A U54G, the yeast fitness was not above 0.5.

Take A20C C24U C31G A37U C60G: the yeast fitness is not above 0.5.

G25A C29G A43C C61A A69U: the yeast fitness is not above 0.5.

C5G A20U C29G: the yeast fitness was not above 0.5.

With C11U A21G C29G, the yeast fitness was not above 0.5.

Take U8C A15C A20U A65U: the yeast fitness was not above 0.5.

Turning to C22U C24A U28G U53G U54A G58C, the yeast fitness was not above 0.5.

For C5A C11G C24A, the yeast fitness is not above 0.5.

Turning to U26C A37C C66G, the yeast fitness is not above 0.5.

Regarding C27A G58C, the yeast fitness came out at 1.13.

Turning to C11G C22A A69U, the yeast fitness is not above 0.5.

U3C G6A C30U A45G C46U C49G: the yeast fitness is not above 0.5.

For the variant G9C A15C C34G C55A C66A A69C, the yeast fitness is not above 0.5.

As to U8A C34U C49A G56C C62A A65C, the yeast fitness was not above 0.5.

For the variant A15C C31A A37U, the yeast fitness was not above 0.5.

As to G10C A40G A65C, the yeast fitness was not above 0.5.

Consider U2C G18A G25A, for which the yeast fitness is 0.599.

U2A U16C G25C: the yeast fitness is not above 0.5.

For the variant C30G C33G C34U A42U A69U, the yeast fitness is not above 0.5.

Take G17A C31G: the yeast fitness worked out at 0.85.

Regarding G25C C31U A69U, the yeast fitness was determined as 0.77.

Take G25C U35A C60G G67A: the yeast fitness is not above 0.5.

Take A14G A42G C61G C66A: the yeast fitness was not above 0.5.

C27U A37U U47G C55U G63A A65G: the yeast fitness was not above 0.5.

A20U G50A G63C: the yeast fitness was not above 0.5.

Regarding A43C C55U, the yeast fitness came to 0.721.

As for G17A C22U C27A C30G C49A, the yeast fitness is not above 0.5.

Regarding U59A C66A, the yeast fitness came out at 0.63.

For G18A C31A G44A, the yeast fitness turned out to be 0.534.

As to U2C U35G G52A C66U, the yeast fitness was not above 0.5.

In the case of C27U C34U A36C A37C, the yeast fitness is not above 0.5.

G6C U8C C24U U35C C66U: the yeast fitness was not above 0.5.

Turning to C4A U19G A70C, the yeast fitness turned out to be 0.854.

As for C30A A69C, the yeast fitness stood at 1.03.

For the variant U2A U16G C49G, the yeast fitness turned out to be 0.705.

Turning to A14C G17C C24U C62G C66U, the yeast fitness is not above 0.5.

For the variant U26A A40C U64A A70G, the yeast fitness was not above 0.5.

The values above are taken from the RNAGym collection of RNA variant scans (doi:10.1126/science.aae0568).
